Measured data: PubChem BioAssay AID743121 (NCATS, 2013)
Here is an unselected part of about 26,000 deposited reagents. 167 of all reagents (0.63%) count as active. 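Calls are per gene from RSA p-values that are not deposited; an individual active-marked siRNA can sensitise only weakly.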 Reagents against one gene are numbered here. Not all columns of the deposit are shown. No sequences are given here.

Aim: 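Genes whose silencing strengthens cell killing by camptothecin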 (primary screen)
Cells: MDA-MB-231 cells, a human breast cancer line
Reagents: single siRNA against human genes, 20 nM siRNA (0.8 pmol per well)
Timing: 120 h (drug added 48 h after transfection, read 72 h later)
Treatment: camptothecin 20 nM (about EC30) for 72 h; vehicle 0.1% DMSO in parallel plates
Detection: 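CellTiter-Glo ATP signal, scaled to control siRNA as percent viability; sensitisation given as log2 of untreated divided by camptothecin-treated viability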
Direction: log2 vehicle/camptothecin viability: higher = stronger sensitisation to camptothecin
Call rule: 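Active genes have an RSA gene-level p-value below 0.001, computed from the ratios of their separate siRNAs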

With knock-down of DNAH11 #1, the record shows log2 vehicle/camptothecin viability -0.117; inactive.
DNAH11 #2 gave log2 vehicle/camptothecin viability -0.0496; inactive.
DNAH11 #3 gave log2 vehicle/camptothecin viability -0.0863; inactive.
Knock-down of MGAM #1 came out at: log2 vehicle/camptothecin viability 0.149; inactive.
MGAM #2 gave log2 vehicle/camptothecin viability -0.0757; inactive.
MGAM #3 showed log2 vehicle/camptothecin viability 0.103; inactive.
Against MGAM #4, the values are log2 vehicle/camptothecin viability 0.0765; inactive.
After knock-down of PSMB8 #1, the record shows log2 vehicle/camptothecin viability 0.226; inactive.
Against PSMB8 #2 the deposit lists log2 vehicle/camptothecin viability 0.00916; inactive.
PSMB8 #3 gave log2 vehicle/camptothecin viability -0.236; inactive.
With knock-down of PSMB8 #4, the screen gave log2 vehicle/camptothecin viability -0.198; inactive.

4 entries from above in another layout:
| Gene | reagent no. | log2 vehicle/camptothecin viability | outcome |
| --- | --- | --- | --- |
| PSMB8 | 1 | 0.226 | inactive |
| PSMB8 | 2 | 0.00916 | inactive |
| PSMB8 | 3 | -0.236 | inactive |
| PSMB8 | 4 | -0.198 | inactive |

Further reagents:
WASF2 #1 scored log2 vehicle/camptothecin viability -0.328; inactive.
Silencing of WASF2 #2 resulted in: log2 vehicle/camptothecin viability 0.229; inactive.
Against WASF2 #3, the entry reads log2 vehicle/camptothecin viability -0.247; inactive.
With knock-down of WASF2 #4, the record shows log2 vehicle/camptothecin viability -0.273; inactive.
Knock-down of NPTXR #1 gave: log2 vehicle/camptothecin viability 0.0079; inactive.
Against NPTXR #2 the deposit lists log2 vehicle/camptothecin viability -0.219; inactive.
For NPTXR #3 the deposit lists log2 vehicle/camptothecin viability -0.43; inactive.
Depletion of NPTXR #4 gave: log2 vehicle/camptothecin viability -0.343; inactive.
For TXNIP #1, the entry reads log2 vehicle/camptothecin viability 1.34; inactive.
Against TXNIP #2, the values are log2 vehicle/camptothecin viability 0.205; inactive.
Silencing of TXNIP #3 resulted in: log2 vehicle/camptothecin viability -0.00147; inactive.
With knock-down of TXNIP #4, the screen gave log2 vehicle/camptothecin viability 0.331; inactive.
Against CDK15 #1, the values are log2 vehicle/camptothecin viability 0.715; inactive.
CDK15 #2 showed log2 vehicle/camptothecin viability 1.11; inactive.
Silencing of CDK15 #3 gave: log2 vehicle/camptothecin viability -0.0913; inactive.
With knock-down of CDK15 #4, the screen gave log2 vehicle/camptothecin viability -0.565; inactive.
